System: Trametes versicolor (TV7)
Assay: Whole-cell biotransformation in liquid culture, biomass immobilized on PMS
Assay type: cell-based
Conditions: strain TV7 on PMS, 1 mM precursor, 10 times diluted GPA, 48 hours, at product λmax (2,5DABS: sum of 460 and 544 nm)

`Oc1ccc2ccc(O)cc2c1` [DHN, 2,7-dihydroxynaphtalene] was tested, and the “Absorbance of product (Abs)” value was 0.18 ± 0.03 Abs.
